Results are given in words; binding and its absence hold for the method and conditions named. Some binding calls cover weakened binding; strength is not graded here. Tags and fused reporters may be left off the sequences shown. No end group written: not given here. *: point of attachment. Acm = CC(=O)NC*
Experiments:
Thrombospondin (TSP-1) [1] = target: Thrombospondin (TSP-1) (UniProt P07996); experiment: resonant mirror biosensor, immobilized TSP-1 (FIG. 10)
Thrombospondin (TSP-1) [2] = target: Thrombospondin (TSP-1) (UniProt P07996); experiment: resonant mirror biosensor, peptide alone on immobilized TSP-1

Sequences of proteins named here, by UniProt entry; tags and fusion partners are left off. Residues count along the entry.
UniProt P07996, residues 19-1170: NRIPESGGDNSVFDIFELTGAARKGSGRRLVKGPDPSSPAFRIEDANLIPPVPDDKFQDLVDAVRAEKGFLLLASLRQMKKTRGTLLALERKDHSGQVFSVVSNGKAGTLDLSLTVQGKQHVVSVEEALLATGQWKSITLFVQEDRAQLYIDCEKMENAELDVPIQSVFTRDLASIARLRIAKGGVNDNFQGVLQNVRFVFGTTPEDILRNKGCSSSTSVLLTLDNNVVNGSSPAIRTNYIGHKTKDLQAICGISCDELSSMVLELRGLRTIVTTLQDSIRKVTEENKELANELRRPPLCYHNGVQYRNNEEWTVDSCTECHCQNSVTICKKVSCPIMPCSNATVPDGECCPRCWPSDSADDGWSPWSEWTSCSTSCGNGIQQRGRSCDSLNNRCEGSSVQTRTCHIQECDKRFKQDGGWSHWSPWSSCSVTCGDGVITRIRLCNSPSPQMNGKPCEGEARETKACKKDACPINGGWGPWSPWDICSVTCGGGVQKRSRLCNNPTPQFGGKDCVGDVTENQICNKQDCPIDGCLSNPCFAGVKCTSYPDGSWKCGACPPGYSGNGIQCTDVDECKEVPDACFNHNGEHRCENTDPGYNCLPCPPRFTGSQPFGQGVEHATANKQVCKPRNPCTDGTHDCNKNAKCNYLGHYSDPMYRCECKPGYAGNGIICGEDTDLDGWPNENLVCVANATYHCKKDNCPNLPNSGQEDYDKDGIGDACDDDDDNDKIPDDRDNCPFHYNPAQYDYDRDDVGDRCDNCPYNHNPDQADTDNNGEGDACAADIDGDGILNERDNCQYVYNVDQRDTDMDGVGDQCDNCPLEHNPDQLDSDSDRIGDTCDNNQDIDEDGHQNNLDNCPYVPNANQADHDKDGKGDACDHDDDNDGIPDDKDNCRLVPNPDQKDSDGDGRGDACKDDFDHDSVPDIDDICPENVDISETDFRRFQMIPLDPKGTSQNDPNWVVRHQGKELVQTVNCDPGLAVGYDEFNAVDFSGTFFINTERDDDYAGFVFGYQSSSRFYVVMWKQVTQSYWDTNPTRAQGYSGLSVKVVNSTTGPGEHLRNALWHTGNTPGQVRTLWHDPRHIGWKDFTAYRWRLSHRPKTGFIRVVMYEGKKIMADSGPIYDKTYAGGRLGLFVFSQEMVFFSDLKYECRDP

## VCHSKTR (Cys(Acm) at position 2) [Val-Cys(Acm)-His-Ser-Lys-Thr-Arg (SEQ ID NO: 9)]
Thrombospondin (TSP-1) [1]
  binding: binds
Thrombospondin (TSP-1) [2]
  binding: binds
